Cell number change and AC50 data for 36 molecules are collected here from PubChem BioAssay AID2685 (National Center for Advancing Translational Sciences (NCATS), 2010).

Some of the results follow. Further columns of the screen follow, without active or inactive calls. Most of these compounds were active or inconclusive in the main read-out, so they are no random draw. Words in brackets tell the shape of the fitted curve; partial curves, single points and poor fits give uncertain potencies.

This assay can be described thus: qHTS Assay for Lipid Storage Modulators in Drosophila S3 Cells.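 For Cell number change: cells counted by Cell Tracker Red CMTPX staining in the red channel.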 The conditions noted are these: BODIPY lipid droplet fluorescence, 18-24 h; for cell number change: measured here: cell count max response, cells fed with added oleic acid. The essentials: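 Drosophila S3 cells got compounds at several concentrations plus oleic acid (400 uM solution). Laser-scanning cytometry with 488 nm excitation read lipid droplets at 500-530 nm and cells at 575-640 nm. Percent activity was relative to 20 uM Triacsin C.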
For orientation: qHTS replaces the single test concentration by a dilution series.

Where [1] appears, read: measured here: lipid fluorescence (Fed channel) AC50, cells fed with added oleic acid.
Setting [2] is: measured here: cell number channel AC50, cells fed with added oleic acid.

Usually AC50 stands for the concentration giving half of the maximal activity seen. A higher AC50 goes with activity only at high concentration. Turning to `Cc1ccc(S(=O)(=O)N2[C@@H](c3ccc(Cl)cc3)C(C(=O)O)=CC[C@H]2c2cccc(Cl)c2)cc1`, the cell number change turned out to be 24.6%. Under setting [1], the AC50 is 23.1 µM [rising, single point].

As for `Cn1cc([N+](=O)[O-])c(C(=O)Nc2ccc3nc(-c4ccccc4)[nH]c3c2)n1`, the cell number change is -17.3%. Under setting [2], the AC50 was 4.61 µM [rising, partial curve]. Further, the AC50 under setting [1] was 0.461 µM [rising, full curve].

For `CSc1ccc(C2=CC(=O)C[C@H](c3ccc(Cl)cc3)C2)cc1`, the cell number change is -3.49%. In addition, under setting [1], the AC50 was 29.1 µM [rising, single point].

As for `OC1CN=C2C=CC=CN2C1` (centres undefined), the cell number change worked out at 3.76%.

As for `COCCn1c(SCC(=O)Nc2ccc(OC)cc2OC)nc2ccccc2c1=O`, the cell number change came out at 3.04%. Besides, the AC50 under setting [1] is 20.6 µM [falling, partial curve].

On to `CN(Cc1cccs1)C(=O)CCc1c[nH]c2ccccc12`, for which the cell number change came to 12.6%.

On to `NS(=O)(=O)c1ccc(CCNS(=O)(=O)c2ccc(Cl)cc2)cc1`, for which the cell number change amounted to 20.7%. In addition, the AC50 under setting [1] is 0.58 µM [rising, single point].

As for `CCn1c2ccccc2c2cc(CN3CCN(C(=O)c4ccco4)CC3)ccc21`, the cell number change was -15.3%. The AC50 under setting [2] is 0.116 µM [falling, full curve, poor fit]. Further, under setting [1], the AC50 is 0.13 µM [falling, full curve, poor fit].

Regarding `CC(C)CCN1CC(=O)N2[C@@H](Cc3c([nH]c4ccccc34)C2(C)C)C1=O`, the cell number change was 34.8%. The AC50 under setting [2] was 18.4 µM [rising, single point]. In addition, the AC50 under setting [1] is 29.1 µM [rising, single point].

In the case of `CC(=O)NC1=NN(C(C)=O)C(C)(c2ccc3ccccc3c2)S1` (centres undefined), the cell number change is -33%. The AC50 under setting [2] was 0.116 µM [falling, full curve, poor fit]. Under setting [1], the AC50 was 0.291 µM [falling, full curve, poor fit].

Take `Cc1ccc(C2(C)NC(=O)N(CC(=O)NC(=O)NCCC(C)C)C2=O)cc1` (centres undefined): the AC50 under setting [1] is 1.46 µM [falling, full curve].

As for `COc1ccc(-c2cc(-c3ccccc3)no2)cc1`, the cell number change was determined as 17%. In addition, under setting [1], the AC50 was 14.6 µM [rising, single point].

For the molecule `O=C(CNC(=S)NC(=O)c1cccc([N+](=O)[O-])c1)c1ccccc1`, the cell number change was -41.8%. For the same molecule, the AC50 under setting [2] was 1.16 µM [falling, full curve].

Take `CCc1nn(CC(=O)NCCCN2CCCC2=O)c(=O)c2cc3sccc3n12`: the cell number change worked out at 30.1%. Also, the AC50 under setting [2] is 18.4 µM [rising, single point]. Moreover, the AC50 under setting [1] was 29.1 µM [rising, single point].

Consider `Cc1ccc(C2C(C(=O)O)c3ccccc3C(=O)N2C)c(C)c1` (centres undefined), for which the cell number change is -30.8%. Also, the AC50 under setting [2] was 18.4 µM [falling, single point]. Besides, the AC50 under setting [1] was 6.51 µM [rising, single point].

For the molecule `Nc1nc2c(-c3ccc(Br)cc3)nnn2c2ccccc12`, the cell number change was -27.7%. The AC50 under setting [1] is 29.1 µM [falling, single point].

In the case of `Cc1ccc(S(=O)(=O)Cc2ccc(C(=O)NCCCN3CCCC3=O)o2)cc1`, the cell number change came to 8.67%. Further, the AC50 under setting [1] is 2.06 µM [rising, partial curve].

`C=CCN1C(=O)/C(=C2/Sc3ccc(OC)cc3N2C)SC1=Nc1cccc(O)c1`: the cell number change is -29.1%. Moreover, the AC50 under setting [1] was 25.9 µM [falling, single point].

Regarding `CCOc1ccc(NC(=O)CNC(=O)c2cn(-c3ccccc3OC)c(=O)c3ccccc23)cc1`, the AC50 is 2.59 µM [rising, partial curve] under setting [2] and 2.31 µM [rising, partial curve] under setting [1].

As for `O=C(O)C(Cc1ccccc1)N1C(=O)c2cccc3cccc(c23)C1=O` (centres undefined), the cell number change is -8.7%. Further, the AC50 under setting [2] was 7.31 µM [falling, partial curve].

Consider `O=C(Nc1c(F)cccc1F)c1cnc(N2CCN(c3ccccn3)CC2)c2ccccc12`, for which the cell number change came to 16%. Moreover, the AC50 under setting [2] was 0.82 µM [rising, full curve, poor fit].

Regarding `COC(=O)c1ccccc1NC(=O)NN1CCN(C)CC1`, the cell number change was 2.7%. Also, under setting [1], the AC50 is 1.3 µM [rising, full curve].

For `C/C(=N\NC(=S)NCC(C)(C)C)c1cc(F)cc(F)c1O`, the cell number change is -45%. Besides, the AC50 under setting [2] was 29.1 µM [falling, single point].

Consider `CCOC(=O)c1cnc(SC)nc1Oc1cccc(NC(=O)c2ccc(C)cc2)c1`, for which the AC50 under setting [1] was 6.51 µM [rising, partial curve, poor fit].

Regarding `CCOc1ccc(S(=O)(=O)N2CCOCC2)cc1NS(=O)(=O)c1ccc(OC)c([N+](=O)[O-])c1`, the cell number change turned out to be 64%. For the same molecule, the AC50 under setting [2] was 29.1 µM [rising, single point]. Further, the AC50 under setting [1] was 0.291 µM [rising, partial curve, poor fit].

In the case of `O=C(NCc1ccc(Cl)cc1)c1cc(S(=O)(=O)N2CCCCC2)c[nH]1`, the cell number change was 5.69%. Further, the AC50 under setting [2] was 0.651 µM [rising, full curve, poor fit]. Also, the AC50 under setting [1] was 8.2 µM [falling, partial curve].

Take `O=S(=O)(c1cccc2ccccc12)N1CCCCC1`: the cell number change is 14.4%.

In the case of `COC(=O)CNC(=O)C1CCN(S(=O)(=O)c2cnc[nH]2)CC1`, under setting [1], the AC50 is 0.291 µM [falling, full curve].

With `COc1ccc(NC(=O)CN2C(=O)NC3(CCCC3)C2=O)cc1Cl`, the cell number change was -15.3%. Moreover, the AC50 under setting [1] is 0.58 µM [falling, single point].

For `CC(C)NC(=O)CCn1c(=S)oc2ccccc21`, the cell number change is 23.8%. Besides, under setting [1], the AC50 is 6.51 µM [falling, single point].

In the case of `COCCn1c(C)cc(C(=O)CSc2cc(C)c3ccccc3n2)c1C`, the cell number change is -16.1%. Under setting [1], the AC50 is 0.00461 µM [falling, full curve, poor fit].

Take `CC1CCN(CCCNC(=O)C2CC(=O)N(CCc3ccccc3)C2)CC1` (centres undefined): the cell number change came out at 6.49%. Besides, under setting [1], the AC50 is 0.651 µM [rising, full curve, poor fit].

As to `Cn1c(=O)c2c(n(Cc3ccccc3)c1=O)NC(=O)C2CC(=O)O` (centres undefined), the cell number change is -14.8%. The AC50 under setting [2] is 0.058 µM [falling, full curve, poor fit]. Under setting [1], the AC50 is 1.3 µM [falling, full curve].

For `CC1(N2CCCCC2)CC2(O)C(=[N+]1[O-])CCC/C2=N\O` (centres undefined), the cell number change stood at 4.78%.

In the case of `Cc1n[nH]c(=O)c2c(NC(=O)CSc3nnc(-c4ccncc4)n3C)oc(C)c12`, the cell number change was determined as 2.19%.

On to `S=c1nc[nH]c2c1sc1nc(-c3ccccc3)c3c(c12)CCCC3`, for which the cell number change is -31%. The AC50 under setting [2] was 14.6 µM [falling, single point]. Besides, under setting [1], the AC50 is 16.4 µM [falling, single point].
